Measurements: paper PMC3032679, “Designed hybrid TPR peptide targeting Hsp90 as a novel anticancer agent” (Journal of Translational Medicine, 2011)
Results are given in words; binding and its absence hold for the method and conditions named.

Target: human recombinant Hsp90α (human) (UniProt P07900)
Assay: SPR; competition; Hsp90 (1 μM) preincubated with peptide (1.4, 14, 140, 280, 700 μM, 1 mM) passed over immobilised TPR2A domain of Hop (5000 RU, CM5 chip); signal without peptide = 100% binding; 25°C, HBS-EP buffer pH 7.4; both purified

## RKFSAAIGYNKY [TPR scramble peptide (…)]
  binding: no binding (tested: up to millimolar concentrations (1 mM))
